Measurements reported in PubChem BioAssay AID1224828 (NIAID, 2016).

- Screen: 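Regulators linking TLR4 signalling to p65 nuclear translocation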 (primary screen)
- System: mouse RAW264.7 G9 macrophage reporter cells (GFP-p65, Tnf promoter-mCherry)
- Knock-down reagent: siRNA pool against mouse genes, 100 nM
- Timing: 2 days siRNA transfection, then 40 min LPS before fixation
- Treatment: LPS (Salmonella minnesota R595) at 10 ng/ml
- Detection: 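Microscopy ratio of nuclear to perinuclear-ring GFP-p65 signal, scaled to the plate median; gene score is the average of two replicate robust z-scores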
- Direction: p65 translocation robust z-score: higher = more nuclear NF-kappaB p65 after LPS than the plate median; nuclear/cytoplasmic p65 ratio: higher = more nuclear NF-kappaB p65
- Active means: 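Active if robust z is above 3.3 (negative regulators) or below -1.56, the Tlr4 control median (positive regulators); activity score 50 or more; control wells not called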
- Calls: active = hit (p65 shift raised or lowered); inactive = no clear change
Shown is a random part of about 17,000 reagents. 762 of all reagents (4.5%) were called active. 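Active calls include both raised and lowered p65 entry, mostly lowered; wells with fewer than 50 cells lack a z-score.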 Raw values vary from plate to plate and are shown uncorrected.

For Faf2 (GeneID 76577), the values are nuclear/cytoplasmic p65 ratio, rep 1 = 1.36; nuclear/cytoplasmic p65 ratio, rep 2 = 1.62; low cell count flag fewer than 50 cells per well; well left out of scoring; inactive.
Engase (GeneID 217364) showed p65 translocation robust z-score 1.93; nuclear/cytoplasmic p65 ratio, rep 1 = 1.83; nuclear/cytoplasmic p65 ratio, rep 2 = 1.52; low cell count flag enough cells to score; inactive.
Against Ube2d1 (GeneID 216080) the deposit lists p65 translocation robust z-score 0.28; nuclear/cytoplasmic p65 ratio, rep 1 = 1.6; nuclear/cytoplasmic p65 ratio, rep 2 = 1.49; low cell count flag enough cells to score; inactive.
With knock-down of Bckdk (GeneID 12041) the results were nuclear/cytoplasmic p65 ratio, rep 1 = 1.54; nuclear/cytoplasmic p65 ratio, rep 2 = 1.32; low cell count flag fewer than 50 cells per well; well left out of scoring; inactive.
With knock-down of Pdhx (GeneID 27402) the results were p65 translocation robust z-score -0.87; nuclear/cytoplasmic p65 ratio, rep 1 = 1.43; nuclear/cytoplasmic p65 ratio, rep 2 = 1.21; low cell count flag enough cells to score; inactive.
Cfap410 (GeneID 67884) gave p65 translocation robust z-score 0.27; nuclear/cytoplasmic p65 ratio, rep 1 = 1.39; nuclear/cytoplasmic p65 ratio, rep 2 = 1.34; low cell count flag enough cells to score; inactive.
With knock-down of Ly6m (GeneID 67038), the record shows p65 translocation robust z-score -0.91; nuclear/cytoplasmic p65 ratio, rep 1 = 1.19; nuclear/cytoplasmic p65 ratio, rep 2 = 1.25; low cell count flag enough cells to score; inactive.
Ca5b (GeneID 56078) scored p65 translocation robust z-score -1.11; nuclear/cytoplasmic p65 ratio, rep 1 = 1.35; nuclear/cytoplasmic p65 ratio, rep 2 = 1.68; low cell count flag enough cells to score; inactive.
For Slc16a12 (GeneID 240638) the deposit lists p65 translocation robust z-score -1.28; nuclear/cytoplasmic p65 ratio, rep 1 = 1.32; nuclear/cytoplasmic p65 ratio, rep 2 = 1.43; low cell count flag enough cells to score; inactive.
Scgb2b27 (GeneID 233099) showed p65 translocation robust z-score 1.79; nuclear/cytoplasmic p65 ratio, rep 1 = 1.75; nuclear/cytoplasmic p65 ratio, rep 2 = 1.69; low cell count flag enough cells to score; inactive.
Silencing of Dtna (GeneID 13527) gave: p65 translocation robust z-score -0.91; nuclear/cytoplasmic p65 ratio, rep 1 = 1.34; nuclear/cytoplasmic p65 ratio, rep 2 = 1.25; low cell count flag enough cells to score; inactive.
Knock-down of A530016L24Rik (GeneID 319942) gave: nuclear/cytoplasmic p65 ratio, rep 1 = 1.03; nuclear/cytoplasmic p65 ratio, rep 2 = 1.32; low cell count flag fewer than 50 cells per well; well left out of scoring; inactive.
Slc25a33 (GeneID 70556) scored p65 translocation robust z-score -1.68; nuclear/cytoplasmic p65 ratio, rep 1 = 1.19; nuclear/cytoplasmic p65 ratio, rep 2 = 1.19; low cell count flag enough cells to score; active.
For Purb (GeneID 19291), the entry reads p65 translocation robust z-score -1.17; nuclear/cytoplasmic p65 ratio, rep 1 = 1.21; nuclear/cytoplasmic p65 ratio, rep 2 = 1.1; low cell count flag enough cells to score; inactive.
For Itpa (GeneID 16434), the entry reads p65 translocation robust z-score -0.29; nuclear/cytoplasmic p65 ratio, rep 1 = 1.43; nuclear/cytoplasmic p65 ratio, rep 2 = 1.35; low cell count flag enough cells to score; inactive.
After knock-down of Chpt1 (GeneID 212862), the screen gave p65 translocation robust z-score 0.84; nuclear/cytoplasmic p65 ratio, rep 1 = 1.58; nuclear/cytoplasmic p65 ratio, rep 2 = 1.49; low cell count flag enough cells to score; inactive.
For Clstn1 (GeneID 65945) the deposit lists p65 translocation robust z-score -0.53; nuclear/cytoplasmic p65 ratio, rep 1 = 1.44; nuclear/cytoplasmic p65 ratio, rep 2 = 1.27; low cell count flag enough cells to score; inactive.
Reg3g (GeneID 19695) showed p65 translocation robust z-score 1.39; nuclear/cytoplasmic p65 ratio, rep 1 = 1.47; nuclear/cytoplasmic p65 ratio, rep 2 = 1.37; low cell count flag enough cells to score; inactive.
Silencing of Syne4 (GeneID 233066) came out at: p65 translocation robust z-score -0.93; nuclear/cytoplasmic p65 ratio, rep 1 = 1.41; nuclear/cytoplasmic p65 ratio, rep 2 = 1.6; low cell count flag enough cells to score; inactive.
Fmn2 (GeneID 54418) gave p65 translocation robust z-score 2.35; nuclear/cytoplasmic p65 ratio, rep 1 = 1.88; nuclear/cytoplasmic p65 ratio, rep 2 = 1.84; low cell count flag enough cells to score; inactive.
Against Zfyve21 (GeneID 68520), the values are p65 translocation robust z-score -1.01; nuclear/cytoplasmic p65 ratio, rep 1 = 1.25; nuclear/cytoplasmic p65 ratio, rep 2 = 1.16; low cell count flag enough cells to score; inactive.

In a second layout: results already given
{"gene": "Fmn2 (GeneID 54418)", "p65 translocation robust z-score": 2.35, "nuclear/cytoplasmic p65 ratio, rep 1": 1.88, "nuclear/cytoplasmic p65 ratio, rep 2": 1.84, "low cell count flag": "enough cells to score", "Call": "inactive"}
{"gene": "Zfyve21 (GeneID 68520)", "p65 translocation robust z-score": -1.01, "nuclear/cytoplasmic p65 ratio, rep 1": 1.25, "nuclear/cytoplasmic p65 ratio, rep 2": 1.16, "low cell count flag": "enough cells to score", "Call": "inactive"}
